Reference: the supplement of paper PMC8728848
Some of the results follow.

Tests used:
Test in all cases: glycan array binding signal (z-score within array); higher = stronger binding
Conditions in all cases: glycan notation: IUPAC condensed, linker removed
GlcA(b1-3)Gal = molecular target: GlcA(b1-3)Gal
How it was run: (§1)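 Negative Z-scores can be read as non-binding. The Z-score is calculated within each array and then averaged across arrays of one protein sequence at different concentrations or buffers and across linkers. Arrays, 3228 in all, were curated from the Consortium for Functional Glycomics database and kept only where the protein sequence was available.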

GlcA(b1-3)GlcNAc = molecular target: GlcA(b1-3)GlcNAc
How it was run: as §1

GlcA(b1-6)Gal = molecular target: GlcA(b1-6)Gal
How it was run: as §1

[1] = molecular target: GlcA3S(b1-3)Gal(b1-4)GlcNAc(b1-2)Man
How it was run: as §1

[2] = molecular target: GlcA3S(b1-3)Gal(b1-4)GlcNAc(b1-3)Gal(b1-4)Glc
How it was run: as §1

[3] = molecular target: GlcNAc(a1-3)Gal(b1-4)GlcNAc
How it was run: as §1

[4] = molecular target: GlcNAc(a1-4)Gal(b1-3)GlcNAc
How it was run: as §1

[5] = molecular target: GlcNAc(a1-4)Gal(b1-4)GalNAc
How it was run: as §1

[6] = molecular target: GlcNAc(a1-4)Gal(b1-4)GlcNAc
How it was run: as §1

[7] = molecular target: GlcNAc(a1-4)Gal(b1-4)GlcNAc(b1-3)Gal(b1-4)Glc
How it was run: as §1

[8] = molecular target: GlcNAc(a1-4)Gal(b1-4)GlcNAc(b1-3)Gal(b1-4)GlcNAc
How it was run: as §1

[9] = molecular target: GlcNAc(a1-4)Gal(b1-4)GlcNAc(b1-3)Gal(b1-4)GlcNAc(b1-3)Gal(b1-4)GlcNAc
How it was run: as §1

[10] = molecular target: GlcNAc(a1-4)Gal(b1-4)GlcNAc(b1-3)Gal(b1-4)[Fuc(a1-3)]GlcNAc(b1-3)Gal(b1-4)[Fuc(a1-3)]GlcNAc
How it was run: as §1

[11] = molecular target: GlcNAc(a1-6)Gal(b1-4)GlcNAc
How it was run: as §1

[12] = molecular target: GlcNAc(b1-2)Gal(b1-3)GalNAc
How it was run: as §1

[13] = molecular target: GlcNAc(b1-2)Man(a1-3)[GlcNAc(b1-2)Man(a1-6)]Man(b1-4)GlcNAc(b1-4)GlcNAc
How it was run: as §1

[14] = molecular target: GlcNAc(b1-2)Man(a1-3)[GlcNAc(b1-2)Man(a1-6)]Man(b1-4)GlcNAc(b1-4)[Fuc(a1-6)]GlcNAc
How it was run: as §1

[15] = molecular target: GlcNAc(b1-2)Man(a1-3)[GlcNAc(b1-4)][GlcNAc(b1-2)Man(a1-6)]Man(b1-4)GlcNAc(b1-4)GlcNAc
How it was run: as §1

[16] = molecular target: GlcNAc(b1-2)Man(a1-3)[GlcNAc(b1-4)][GlcNAc(b1-2)Man(a1-6)]Man(b1-4)GlcNAc(b1-4)[Fuc(a1-6)]GlcNAc
How it was run: as §1

[17] = molecular target: GlcNAc(b1-2)[GlcNAc(b1-4)]Man(a1-3)[GlcNAc(b1-2)Man(a1-6)]Man(b1-4)GlcNAc(b1-4)GlcNAc
How it was run: as §1

[18] = molecular target: GlcNAc(b1-2)[GlcNAc(b1-4)]Man(a1-3)[GlcNAc(b1-4)][GlcNAc(b1-2)Man(a1-6)]Man(b1-4)GlcNAc(b1-4)GlcNAc
How it was run: as §1

[19] = molecular target: GlcNAc(b1-2)[GlcNAc(b1-4)]Man(a1-3)[GlcNAc(b1-4)][GlcNAc(b1-2)[GlcNAc(b1-6)]Man(a1-6)]Man(b1-4)GlcNAc(b1-4)GlcNAc
How it was run: as §1

[20] = molecular target: GlcNAc(b1-2)[GlcNAc(b1-4)]Man(a1-3)[GlcNAc(b1-4)][GlcNAc(b1-2)[GlcNAc(b1-6)]Man(a1-6)]Man(b1-4)GlcNAc(b1-4)[Fuc(a1-6)]GlcNAc
How it was run: as §1

[21] = molecular target: GlcNAc(b1-2)[GlcNAc(b1-6)]Man(a1-6)[GlcNAc(b1-2)Man(a1-3)]Man(b1-4)GlcNAc(b1-4)GlcNAc
How it was run: as §1

[22] = molecular target: GlcNAc(b1-2)[GlcNAc(b1-6)]Man(a1-6)[GlcNAc(b1-2)Man(a1-3)]Man(b1-4)GlcNAc(b1-4)[Fuc(a1-6)]GlcNAc
How it was run: as §1

[23] = molecular target: GlcNAc(b1-2)[GlcNAc(b1-6)]Man(a1-6)[GlcNAc(b1-4)][GlcNAc(b1-2)Man(a1-3)]Man(b1-4)GlcNAc(b1-4)GlcNAc
How it was run: as §1

GlcNAc(b1-3)Fuc = molecular target: GlcNAc(b1-3)Fuc
How it was run: as §1

GlcNAc(b1-3)Gal = molecular target: GlcNAc(b1-3)Gal
How it was run: as §1

[24] = molecular target: GlcNAc(b1-3)Gal(b1-3)GalNAc
How it was run: as §1

GlcNAc(b1-3)Gal(b1-4)Glc = molecular target: GlcNAc(b1-3)Gal(b1-4)Glc
How it was run: as §1

[25] = molecular target: GlcNAc(b1-3)Gal(b1-4)GlcNAc
How it was run: as §1

[26] = molecular target: GlcNAc(b1-3)Gal(b1-4)GlcNAc(b1-2)Man(a1-3)[GlcNAc(b1-3)Gal(b1-4)GlcNAc(b1-2)Man(a1-6)]Man(b1-4)GlcNAc(b1-4)GlcNAc
How it was run: as §1

[27] = molecular target: GlcNAc(b1-3)Gal(b1-4)GlcNAc(b1-2)Man(a1-3)[GlcNAc(b1-3)Gal(b1-4)GlcNAc(b1-2)Man(a1-6)]Man(b1-4)GlcNAc(b1-4)[Fuc(a1-6)]GlcNAc
How it was run: as §1

[28] = molecular target: GlcNAc(b1-3)Gal(b1-4)GlcNAc(b1-2)[GlcNAc(b1-3)Gal(b1-4)GlcNAc(b1-6)]Man(a1-6)[GlcNAc(b1-3)Gal(b1-4)GlcNAc(b1-2)Man(a1-3)]Man(b1-4)GlcNAc(b1-4)GlcNAc
How it was run: as §1

[29] = molecular target: GlcNAc(b1-3)Gal(b1-4)GlcNAc(b1-3)Gal(b1-4)GlcNAc
How it was run: as §1

[30] = molecular target: GlcNAc(b1-3)Gal(b1-4)GlcNAc(b1-3)Gal(b1-4)GlcNAc(b1-2)Man(a1-3)[GlcNAc(b1-3)Gal(b1-4)GlcNAc(b1-3)Gal(b1-4)GlcNAc(b1-2)Man(a1-6)]Man(b1-4)GlcNAc(b1-4)GlcNAc
How it was run: as §1

[31] = molecular target: GlcNAc(b1-3)Gal(b1-4)GlcNAc(b1-3)Gal(b1-4)GlcNAc(b1-2)Man(a1-3)[GlcNAc(b1-3)Gal(b1-4)GlcNAc(b1-3)Gal(b1-4)GlcNAc(b1-2)Man(a1-6)]Man(b1-4)GlcNAc(b1-4)[Fuc(a1-6)]GlcNAc
How it was run: as §1

[32] = molecular target: GlcNAc(b1-3)Gal(b1-4)GlcNAc(b1-3)Gal(b1-4)GlcNAc(b1-2)[GlcNAc(b1-3)Gal(b1-4)GlcNAc(b1-3)Gal(b1-4)GlcNAc(b1-6)]Man(a1-6)[GlcNAc(b1-3)Gal(b1-4)GlcNAc(b1-3)Gal(b1-4)GlcNAc(b1-2)Man(a1-3)]Man(b1-4)GlcNAc(b1-4)[Fuc(a1-6)]GlcNAc
How it was run: as §1

[33] = molecular target: GlcNAc(b1-3)Gal(b1-4)GlcNAc(b1-3)Gal(b1-4)GlcNAc(b1-3)Gal(b1-4)GlcNAc(b1-2)Man(a1-3)[GlcNAc(b1-3)Gal(b1-4)GlcNAc(b1-3)Gal(b1-4)GlcNAc(b1-3)Gal(b1-4)GlcNAc(b1-2)Man(a1-6)]Man(b1-4)GlcNAc(b1-4)GlcNAc
How it was run: as §1

[34] = molecular target: GlcNAc(b1-3)Gal(b1-4)GlcNAc(b1-3)Gal(b1-4)GlcNAc(b1-3)Gal(b1-4)GlcNAc(b1-2)Man(a1-3)[GlcNAc(b1-3)Gal(b1-4)GlcNAc(b1-3)Gal(b1-4)GlcNAc(b1-3)Gal(b1-4)GlcNAc(b1-2)Man(a1-6)]Man(b1-4)GlcNAc(b1-4)[Fuc(a1-6)]GlcNAc
How it was run: as §1

[35] = molecular target: GlcNAc(b1-3)Gal(b1-4)GlcNAc(b1-3)Gal(b1-4)GlcNAc(b1-3)Gal(b1-4)GlcNAc(b1-2)[GlcNAc(b1-3)Gal(b1-4)GlcNAc(b1-3)Gal(b1-4)GlcNAc(b1-3)Gal(b1-4)GlcNAc(b1-6)]Man(a1-6)[GlcNAc(b1-3)Gal(b1-4)GlcNAc(b1-3)Gal(b1-4)GlcNAc(b1-3)Gal(b1-4)GlcNAc(b1-2)Man(a1-3)]Man(b1-4)GlcNAc(b1-4)[Fuc(a1-6)]GlcNAc
How it was run: as §1

[36] = molecular target: GlcNAc(b1-3)Gal(b1-4)GlcNAc(b1-3)Gal(b1-4)GlcNAc(b1-3)Gal(b1-4)GlcNAc(b1-3)Gal(b1-4)GlcNAc(b1-2)Man(a1-3)[GlcNAc(b1-3)Gal(b1-4)GlcNAc(b1-3)Gal(b1-4)GlcNAc(b1-3)Gal(b1-4)GlcNAc(b1-3)Gal(b1-4)GlcNAc(b1-2)Man(a1-6)]Man(b1-4)GlcNAc(b1-4)GlcNAc
How it was run: as §1

[37] = molecular target: GlcNAc(b1-3)Gal(b1-4)GlcNAc(b1-3)Gal(b1-4)GlcNAc(b1-3)Gal(b1-4)GlcNAc(b1-3)Gal(b1-4)GlcNAc(b1-2)Man(a1-3)[GlcNAc(b1-3)Gal(b1-4)GlcNAc(b1-3)Gal(b1-4)GlcNAc(b1-3)Gal(b1-4)GlcNAc(b1-3)Gal(b1-4)GlcNAc(b1-2)Man(a1-6)]Man(b1-4)GlcNAc(b1-4)[Fuc(a1-6)]GlcNAc
How it was run: as §1

[38] = molecular target: GlcNAc(b1-3)Gal(b1-4)GlcNAc(b1-3)Gal(b1-4)GlcNAc(b1-3)Gal(b1-4)GlcNAc(b1-3)Gal(b1-4)GlcNAc(b1-2)[GlcNAc(b1-3)Gal(b1-4)GlcNAc(b1-3)Gal(b1-4)GlcNAc(b1-3)Gal(b1-4)GlcNAc(b1-3)Gal(b1-4)GlcNAc(b1-6)]Man(a1-6)[GlcNAc(b1-3)Gal(b1-4)GlcNAc(b1-3)Gal(b1-4)GlcNAc(b1-3)Gal(b1-4)GlcNAc(b1-3)Gal(b1-4)GlcNAc(b1-2)Man(a1-3)]Man(b1-4)GlcNAc(b1-4)[Fuc(a1-6)]GlcNAc
How it was run: as §1

[39] = molecular target: GlcNAc(b1-3)Gal(b1-4)GlcNAc(b1-3)Gal(b1-4)GlcNAc(b1-3)GalNAc
How it was run: as §1

B1: HFR-3 (Triticum aestivum) (protein)
chain: MKGLLLCALALAFAAVTTHAQLQSCPTRCGKQADGMECPNNLCCSKDGYCGLGVDYCSAGAGCQSGACYDNKICGAQANGTLCRNNHCCSSGGRCGYGREYCSNGCQGGPCWADLKCGHLDNGKLCPNNLCCSQYGYCGLGPEFCGTGCQNGACSTDKPCGNKANGAPCTNNYCCSQYGSCGLGKDYCGTGCQNGACN
glycan array binding signal (z-score) (GlcA(b1-3)Gal): -0.089 | glycan array binding signal (z-score) (GlcA(b1-3)GlcNAc): 0.799 | glycan array binding signal (z-score) (GlcA(b1-6)Gal): -0.641 | glycan array binding signal (z-score) [1]: 0.183 | glycan array binding signal (z-score) [2]: -1.31 | glycan array binding signal (z-score) [3]: 0.333 | glycan array binding signal (z-score) [4]: 0.841 | glycan array binding signal (z-score) [5]: -0.312 | glycan array binding signal (z-score) [6]: -0.947 | glycan array binding signal (z-score) [7]: -0.926 | glycan array binding signal (z-score) [8]: 0.598 | glycan array binding signal (z-score) [9]: -0.395 | glycan array binding signal (z-score) [10]: -0.709 | glycan array binding signal (z-score) [11]: -0.582 | glycan array binding signal (z-score) [12]: 0.369 | glycan array binding signal (z-score) [13]: -0.126 | glycan array binding signal (z-score) [14]: -0.197 | glycan array binding signal (z-score) [15]: 0.089 | glycan array binding signal (z-score) [16]: -1.15 | glycan array binding signal (z-score) [17]: -1.68 | glycan array binding signal (z-score) [18]: -0.038 | glycan array binding signal (z-score) [19]: -0.89 | glycan array binding signal (z-score) [20]: -1.25 | glycan array binding signal (z-score) [21]: -0.021 | glycan array binding signal (z-score) [22]: -1.95 | glycan array binding signal (z-score) [23]: -0.852 | glycan array binding signal (z-score) (GlcNAc(b1-3)Fuc): 0.533 | glycan array binding signal (z-score) (GlcNAc(b1-3)Gal): -0.25 | glycan array binding signal (z-score) [24]: 1.4 | glycan array binding signal (z-score) (GlcNAc(b1-3)Gal(b1-4)Glc): 1.36 | glycan array binding signal (z-score) [25]: -1.06 | glycan array binding signal (z-score) [26]: 0.65 | glycan array binding signal (z-score) [27]: -0.299 | glycan array binding signal (z-score) [28]: 0.779 | glycan array binding signal (z-score) [29]: 0.445 | glycan array binding signal (z-score) [30]: -0.023 | glycan array binding signal (z-score) [31]: 1.07 | glycan array binding signal (z-score) [32]: 0.6 | glycan array binding signal (z-score) [33]: -0.075 | glycan array binding signal (z-score) [34]: 0.79 | glycan array binding signal (z-score) [35]: 2.43 | glycan array binding signal (z-score) [36]: 0.099 | glycan array binding signal (z-score) [37]: 0.443 | glycan array binding signal (z-score) [38]: 1.15 | glycan array binding signal (z-score) [39]: -0.473
